Results: PubChem BioAssay AID330 (DTP/NCI, 2004)
The list shows only some results of the screen, not a fair sample: it is rich in T/C values a quarter to a half above the control, in often repeated tests (any T/C) and in doses without a T/C. Other doses and runs of a compound stand elsewhere. T/C is the treated group as % of the vehicle group. Some entries give survivors of the animals treated and no T/C: the source holds a T/C of zero for them, seemingly a mark for toxic or unscored doses. Some survivor counts are full or nearly so, which does not show that the dose was tolerated: survival well below the control is almost never listed, so the zero probably covers shortened survival too. Survivors were counted at the toxicity check, usually on the fifth day, unless a day is given; later deaths do not show. Schedule codes are those of the source, taken here to give the interval after Q, in days (D) or hours (H), and the number of doses after X. For survival time, this PubChem deposit counts one and a half times the control or more as active, and values a quarter to a half above the control carry no call in these data; other NCI protocols may use other cut-offs.

Tested on: P388 leukemia ip, CD2F1 mice, survival T/C
Assay: NCI In Vivo Anticancer Drug Screen. Data for tumor model P388 Leukemia (intraperitoneal) in CD2F1 (CDF1) mice
Details: T/C endpoint: median survival time, higher T/C = longer survival
[1] = dose: 120.0 mg/kg/injection, schedule: Q01DX005 (ip), vehicle: saline with Tween-80
[2] = dose: 240.0 mg/kg/injection, schedule: Q01DX005 (ip), vehicle: saline with Tween-80
[3] = dose: 200.0 mg/kg/injection, schedule: Q01DX009 (ip), vehicle: saline with Tween-80
[4] = dose: 200.0 mg/kg/injection, schedule: Q04DX002 (ip), vehicle: saline
[5] = dose: 100.0 mg/kg/injection, schedule: Q01DX009 (ip), vehicle: saline
[6] = dose: 200.0 mg/kg/injection, schedule: Q01DX009 (ip), vehicle: saline
[7] = dose: 200.0 mg/kg/injection, schedule: Q01DX005 (ip), vehicle: saline with Tween-80
[8] = dose: 200.0 mg/kg/injection, schedule: Q01DX005 (ip), vehicle: Klucel (hydroxypropylcellulose) (HPC)
[9] = dose: 200.0 mg/kg/injection, schedule: Q04DX003 (ip), vehicle: Klucel (hydroxypropylcellulose) (HPC)
[10] = dose: 400.0 mg/kg/injection, schedule: Q04DX003 (ip), vehicle: Klucel (hydroxypropylcellulose) (HPC)

CC1CC(C#N)=C(NC#N)NC1=O (stereo not given)
T/C (dose: 30.0 mg/kg/injection, schedule: Q01DX005 (ip), vehicle: saline with Tween-80): 134 % of control | T/C (dose: 30.0 mg/kg/injection, schedule: Q01DX005 (ip), vehicle: saline): 126 % of control | survivor count (dose: 60.0 mg/kg/injection, schedule: Q01DX005 (ip), vehicle: saline with Tween-80): 0 of 6 | survivor count (dose: 60.0 mg/kg/injection, schedule: Q01DX005 (ip), vehicle: saline): 0 of 6 | survivor count [1]: 0 of 6 | survivor count [2]: 0 of 6

c1ccc(N=C2c3ccccc3NC2(c2ccccc2)c2ccccc2)cc1
survivor count [3]: 6 of 6

COC(=O)Cn1/c(=N\N=C(/C)c2ccc(C)cc2)sc2ccccc21
survivor count (dose: 400.0 mg/kg/injection, schedule: Q01DX001 (ip), vehicle: saline with Tween-80): 6 of 6

CCCCCCCCCCCCCC[N+]1([O-])CCOCC1
survivor count [4]: 3 of 6 | survivor count (dose: 400.0 mg/kg/injection, schedule: Q04DX002 (ip), vehicle: saline): 0 of 6

CS(=O)(=O)Nc1ccc(Nc2c3ccccc3nc3cc([N+](=O)[O-])ccc23)cc1
T/C (dose: 0.18 mg/kg/injection, schedule: Q01DX009 (ip), vehicle: saline with Tween-80): 132 % of control | T/C (dose: 0.37 mg/kg/injection, schedule: Q01DX009 (ip), vehicle: saline with Tween-80): 134 % of control

CCCCCCc1c(C#N)c(S)[nH]c(=S)c1C#N
survivor count [5]: 3 of 6 | survivor count [6]: 0 of 6

O=C(Nc1cccc2cccnc12)C1=C(Nc2cccc3cccnc23)CCC1
survivor count (dose: 100.0 mg/kg/injection, schedule: Q01DX009 (ip), vehicle: saline with Tween-80): 6 of 6

CC(=O)Oc1cccc2c1CC(C[Se]c1ccccc1)C(=O)O2 (stereo not given)
survivor count [7]: 6 of 6

CCCCCCCCCCCCCCCC1C(N)C(=O)N(C)N1C (stereo not given)
survivor count [3]: 5 of 6

O=C(O)c1ccccc1.[Eu]
survivor count (dose: 100.0 mg/kg/injection, schedule: Q01DX009 (ip), vehicle: Klucel (hydroxypropylcellulose) (HPC)): 6 of 6

Cc1noc(NS(=O)(=O)c2ccc(N=c3c4ccccc4n(-c4ccccc4)c4ccccc34)cc2)c1C
survivor count [7]: 0 of 6

CN1C(C(=O)Nc2nccs2)=C(O)c2ccccc2S1(=O)=O
survivor count [2]: 3 of 6

COc1cc2c[n+](C)c(-c3ccc(Cl)c(Cl)c3)c(OC)c2cc1OC
survivor count (dose: 100.0 mg/kg/injection, schedule: Q04DX003 (ip), vehicle: suspension in saline): 0 of 6 | survivor count (dose: 200.0 mg/kg/injection, schedule: Q04DX003 (ip), vehicle: suspension in saline): 0 of 6 | survivor count (dose: 400.0 mg/kg/injection, schedule: Q04DX003 (ip), vehicle: suspension in saline): 0 of 6

c1cncc(-c2n[nH]c3c2CCc2ccccc2-3)c1
survivor count (dose: 9.4 mg/kg/injection, schedule: Q01DX009 (ip), vehicle: other): 3 of 3 | survivor count (dose: 18.8 mg/kg/injection, schedule: Q01DX009 (ip), vehicle: other): 3 of 3 | T/C (dose: 25.0 mg/kg/injection, schedule: Q01DX009 (ip), vehicle: other): 126 % of control

Cc1oc2ccccc2c(=O)c1CN1CCOCC1
survivor count (dose: 240.0 mg/kg/injection, schedule: Q01DX005 (ip), vehicle: saline): 0 of 6

CCOC(OCC)C(=O)OCC(=O)[C@]1(O)Cc2c(O)c3c(c(O)c2[C@@H](OC2CC(N)C(O)C(C)O2)C1)C(=O)c1c(OC)cccc1C3=O (stereo not given in full)
T/C (dose: 0.13 mg/kg/injection, schedule: Q01DX009 (ip), vehicle: saline): 135 % of control | T/C (dose: 0.25 mg/kg/injection, schedule: Q01DX009 (ip), vehicle: saline): 144 % of control | T/C (dose: 0.5 mg/kg/injection, schedule: Q03HX008 (ip), vehicle: saline): 126 % of control | T/C (dose: 1.0 mg/kg/injection, schedule: Q03HX008 (ip), vehicle: saline): 129 % of control | T/C (dose: 2.0 mg/kg/injection, schedule: Q03HX008 (ip), vehicle: saline): 145 % of control | T/C (dose: 4.0 mg/kg/injection, schedule: Q01DX001 (ip), vehicle: saline): 137 % of control | T/C (dose: 8.0 mg/kg/injection, schedule: Q01DX001 (ip), vehicle: saline): 146 % of control | survivor count (dose: 8.0 mg/kg/injection, schedule: Q01DX009 (ip), vehicle: saline): 8 of 8

CCN(CCO)CCNc1ccc(C)c2sc3cc(Cl)ccc3c(=O)c12
survivor count [8]: 3 of 5

CCCCCCCCCCCCNC(=O)[C@@]1(O)[C@H](O)C2(CC)C=CCN3CCC4(c5cc([C@@]6(C(=O)OC)CC7CN(CCc8c6[nH]c6ccccc86)C[C@](O)(CC)C7)c(OC)cc5N(C)[C@H]41)C32 (stereo not given in full)
T/C (dose: 18.0 mg/kg/injection, schedule: Q01DX005 (ip), vehicle: saline): 135 % of control

CC(C)CNN(CC(C)C)C(N)=O
survivor count (dose: 400.0 mg/kg/injection, schedule: Q01DX009 (ip), vehicle: saline with Tween-80): 3 of 6

CSC1(SC2=NCCN2)SC2(NCCN2)S1
survivor count (dose: 100.0 mg/kg/injection, schedule: Q01DX001 (ip), vehicle: Klucel (hydroxypropylcellulose) (HPC)): 6 of 6

C=C1C(=O)OC2C1C(OC(=O)/C(C)=C\C)CC1(CO1)C1C(O)C=C(C)C21O (stereo not given)
survivor count (dose: 100.0 mg/kg/injection, schedule: Q04DX003 (ip), vehicle: saline with Tween-80): 4 of 6 | survivor count (dose: 200.0 mg/kg/injection, schedule: Q04DX003 (ip), vehicle: saline with Tween-80): 0 of 6

CCOc1ccc(O)c(CN2CCN(Cc3cc(OCC)ccc3O)CC2)c1
survivor count [1]: 6 of 6 | survivor count [2]: 6 of 6

C=C1CC2(CC3CC(C2C)C3(C)C)OC1=O (stereo not given)
survivor count [4]: 6 of 6

O=C(O)c1cc(Cl)ccc1-n1c(=O)[nH]c2ccccc2c1=O
survivor count (dose: 100.0 mg/kg/injection, schedule: Q04DX003 (ip), vehicle: Klucel (hydroxypropylcellulose) (HPC)): 0 of 6 | survivor count [9]: 0 of 6 | survivor count [10]: 0 of 6

S=c1n(-c2ccc(Cl)cc2)c2nc3ccccc3nc(/c2=N\Nc2ccccc2)n1-c1ccccn1
survivor count [7]: 2 of 6

O=[N+]([O-])CC(c1ccccc1)C(C[N+](=O)[O-])c1ccccc1 (stereo not given)
survivor count (dose: 25.0 mg/kg/injection, schedule: Q01DX005 (ip), vehicle: saline with Tween-80): 5 of 5 | survivor count (dose: 50.0 mg/kg/injection, schedule: Q01DX005 (ip), vehicle: saline with Tween-80): 5 of 5 | survivor count [7]: 5 of 5

O=[N+]([O-])c1cc2c(cc1S(=O)(=O)O)C1C(C3C2C2(Cl)C(Cl)=C(Cl)C3(Cl)C2(Cl)Cl)C2(Cl)C(Cl)=C(Cl)C1(Cl)C2(Cl)Cl (stereo not given)
survivor count [6]: 3 of 6

CC1(C)CC(OP(=S)(N2CC2)N2CC2)CC(C)(C)N1O
T/C (dose: 200.0 mg/kg/injection, schedule: Q01DX001 (ip), vehicle: Klucel (hydroxypropylcellulose) (HPC)): 142 % of control

C[n+]1ccc(/C=C/c2ccccc2O)cc1
survivor count [6]: 0 of 6

O=NN(CCF)C(=O)NCCF
T/C (dose: 0.37 mg/kg/injection, schedule: Q01DX009 (ip), vehicle: saline): 127 % of control | survivor count (dose: 5.0 mg/kg/injection, schedule: Q01DX009 (ip), vehicle: saline): 4 of 6 | survivor count (dose: 10.0 mg/kg/injection, schedule: Q01DX009 (ip), vehicle: saline): 0 of 6 | survivor count (dose: 20.0 mg/kg/injection, schedule: Q01DX009 (ip), vehicle: saline): 0 of 6

Oc1c(Cl)cc(Cl)cc1C=Nc1ccc2c(ccc3c4ccccc4ccc23)c1
survivor count [9]: 0 of 5 | survivor count [10]: 0 of 5

O=C1Nc2ccc(Br)cc2/C1=c1/sc2nc3ccccc3n2c1=O
survivor count (dose: 12.5 mg/kg/injection, schedule: Q01DX005 (ip), vehicle: Klucel (hydroxypropylcellulose) (HPC)): 6 of 6 | survivor count (dose: 25.0 mg/kg/injection, schedule: Q01DX005 (ip), vehicle: Klucel (hydroxypropylcellulose) (HPC)): 6 of 6 | survivor count (dose: 50.0 mg/kg/injection, schedule: Q01DX005 (ip), vehicle: Klucel (hydroxypropylcellulose) (HPC)): 6 of 6 | survivor count [8]: 0 of 6

Cc1ccc(N2C(=O)C(C)SC2=S)cc1Cl (stereo not given)
survivor count [5]: 1 of 6
